According to patent US4124577A, “Nonapeptides and methods for their production” (Warner-Lambert, priority 1977, dated 1978):
At least one peptide structure holds a part that was inferred or is arguable (an end, a ring closure or a residue). Where a SMILES comes first, the peptide text is derived from it. [ ]: non-standard residue; d: D form. The star is where a group is joined. Arg(NO2) = N=C(NCCC[C@H](N)C(=O)O)N[N+](=O)[O-]; pGlu = O=C1CC[C@@H](C(=O)O)N1; Tos = Cc1ccc(S(=O)(=O)*)cc1; Boc = CC(C)(C)OC(=O)*; Bn = c1ccc(C*)cc1

System: LRF (luteinizing hormone releasing factor) induced luteinizing hormone (LH) release
Assay: In vitro LRF antagonist test in rat anterior pituitary cell cultures
Type: cell-based
Details: LRF control 5×10^-10
Text: Nonapeptides of this invention were screened for LRF antagonist activity in vitro using rat anterior pituitary cell cultures as described by Vale et. al. [Endocrinology, 91, 562 (1972)]. The inhibition of LRF (luteinizing hormone releasing factor) induced luteinizing hormone (LH) release into the culture medium is the endpoint in this in vitro bioassay.

SMILES | LH released into culture medium (compound molar conc. 1×10^-7) | % LH Release Inhibition (compound molar conc. 1×10^-7) | LH released into culture medium (compound molar conc. 1×10^-8) | % LH Release Inhibition (compound molar conc. 1×10^-8)
Cc1ccc(S(=O)(=O)NC(=N)NCCC[C@H](NC(=O)[C@H](CC(C)C)NC(=O)[C@@H](Cc2ccccc2)NC(=O)[C@H](Cc2ccc(OCc3ccccc3)cc2)NC(=O)[C@H](COCc2ccccc2)NC(=O)[C@H](Cc2c[nH]c3ccccc23)NC(=O)[C@@H]2CCC(=O)N2)C(=O)N2CCC[C@H]2C(=O)NCC(N)=O)cc1 [L-pyroglutamyl-L-tryptophyl-O-benzyl-L-seryl-O-benzyl-L-tyrosyl-D-phenylalanyl-L-leucyl-N^G -[(4-methylphenyl)sulfonyl]-L-arginyl-L-prolyl-glycinamide] ([pGlu]WS(Bn)Y(Bn)[dF]LR(Tos)PG-NH2) | 22.65 ng/mL | 90% | – | –
CC(C)C[C@H](NC(=O)[C@@H](Cc1ccccc1)NC(=O)[C@H](Cc1ccc(OCc2ccccc2)cc1)NC(=O)[C@H](COCc1ccccc1)NC(=O)[C@H](Cc1c[nH]c2ccccc12)NC(=O)[C@H](COCc1ccccc1)NC(=O)OC(C)(C)C)C(=O)N[C@@H](CCCNC(=N)N[N+](=O)[O-])C(=O)N1CCC[C@H]1C(=O)NCC(N)=O [N^α -t-butoxycarbonyl-O-benzyl-L-seryl-L-tryptophyl-O-benzyl-L-seryl-O-benzyl- L-tyrosyl-D-phenylalanyl-L-leucyl-N^G -nitro-L-arginyl-L-prolyl-glycinamide] (Boc-S(Bn)WS(Bn)Y(Bn)[dF]L[Arg(NO2)]PG-NH2) | 15.65 ng/mL | 101% | 43.88 ng/mL | 57%
